PubChem BioAssay AID652243 | Drosophila RNAi Screening Center – 2013
Purpose: 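Fly genes required for human androgen receptor driven transcription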 (primary screen). Cell system: Drosophila S2R+ cells. Reagents: long dsRNA against Drosophila genes. Time to read-out: 72 h (48 h, then 24 h hormone). Challenge: synthetic androgen R1881 at 10 nM for 24 h. Detection: 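Per-well raw luminescence of the androgen-driven firefly reporter and of the Renilla control, two replicates each, without normalisation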. Reading the numbers: firefly reporter light: higher = more light from androgen-responsive reporter; Renilla control light: higher = more constitutive control signal (cell number, transfection). Active means: 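Hit when the log firefly-to-Renilla ratio dropped or increased by a fixed fold versus the mean of GFP or LacZ controls across duplicate plates; lowering cut given as 1.5 and as 3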. Calls: active = hit: reporter lowered or raised; inactive = no hit.
The screen tested about 24,000 reagents; shown is a random part of those with a known target gene and a result. Of all reagents, 246 (1%) are marked active. 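Plates not normalised; calls are printed but the firefly/Renilla ratio behind them is not deposited; fold cut for lowering reported inconsistently.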 The raw values are shown without normalisation. Not stated in the record: the amount of reagent.

predicted target | DRSC id | firefly reporter light, replicate 1 | firefly reporter light, replicate 2 | Renilla control light, replicate 1 | Renilla control light, replicate 2 | outcome
Coq8 | DRSC19900 | 5.39e5 | 4.60e5 | 3.40e6 | 2.78e6 | inactive
Coq8 | DRSC36989 | – | – | – | – | inactive
CG14546 | DRSC14890 | 1.30e5 | 1.47e5 | 2.26e6 | 1.91e6 | inactive
CG33772 | DRSC37803 | 7.78e5 | 5.50e5 | 1.45e6 | 9.69e5 | inactive
CG11369 | DRSC17779 | 2.78e5 | 4.41e5 | 2.40e6 | 3.73e6 | inactive
LysB | DRSC08673 | 1.06e5 | 1.12e5 | 1.34e6 | 1.62e6 | inactive
Tengl1 | DRSC00481 | 1.33e5 | 1.37e5 | 9.77e5 | 7.59e5 | inactive
Mkrn1 | DRSC11870 | 3.66e5 | 5.86e5 | 1.27e6 | 1.83e6 | inactive
Mkrn1 | DRSC25478 | 2.68e5 | 3.54e5 | 3.20e5 | 4.04e5 | inactive
CG30054 | DRSC05354 | 1.71e5 | 1.54e5 | 5.02e5 | 3.06e5 | inactive
Nsf2 | DRSC22104 | 5.15e5 | 5.80e5 | 2.26e6 | 1.74e6 | inactive
Nsf2 | DRSC27428 | 2.91e5 | 2.49e5 | 7.10e5 | 7.91e5 | inactive
CG5805 | DRSC15878 | 1.41e5 | 71462 | 7.50e5 | 5.42e5 | inactive
CG5805 | DRSC24253 | 5.08e5 | 8.59e5 | 5.67e5 | 5.95e5 | inactive
CG5805 | DRSC39075 | 5.80e5 | 3.39e5 | 1.59e6 | 1.29e6 | inactive
pita | DRSC04006 | 1.63e5 | 2.09e5 | 2.94e5 | 4.12e5 | inactive
pita | DRSC04435 | 4.81e5 | 5.26e5 | 1.33e6 | 1.44e6 | inactive
CG15202 | DRSC19649 | 5.52e5 | 5.57e5 | 4.01e6 | 3.35e6 | inactive
CG11248 | DRSC11644 | 55348 | 77979 | 2.94e5 | 5.03e5 | inactive
Oat | DRSC11043 | 12707 | 13885 | 1.81e5 | 1.49e5 | inactive
beat-IIIa | DRSC01577 | 1.76e5 | 2.02e5 | 5.45e5 | 4.42e5 | inactive
beat-IIIa | DRSC02178 | 2.07e5 | 2.64e5 | 2.32e6 | 2.89e6 | inactive
Tasp1 | DRSC10495 | 54257 | 37550 | 4.53e5 | 4.25e5 | inactive
CG7366 | DRSC10825 | 6.19e5 | 6.05e5 | 3.34e6 | 3.83e6 | inactive
CG7366 | DRSC29988 | 4.29e5 | 3.72e5 | 1.00e6 | 8.02e5 | inactive
Gtpx | DRSC08221 | 1.34e6 | 5.30e5 | 1.70e6 | 7.75e5 | inactive
Gtpx | DRSC22117 | 7.78e5 | 6.96e5 | 1.99e6 | 1.87e6 | inactive
CG34357 | DRSC12211 | 61769 | 1.18e5 | 1.53e6 | 2.00e6 | inactive
CG34357 | DRSC12334 | 60655 | 69876 | 1.42e6 | 1.05e6 | inactive
CG34357 | DRSC23031 | 5.11e5 | 4.47e5 | 1.89e6 | 2.23e6 | inactive
CG34357 | DRSC28043 | 6.79e5 | 4.54e5 | 2.23e6 | 1.69e6 | inactive
CG34357 | DRSC28595 | 8.10e5 | 6.00e5 | 1.36e6 | 1.27e6 | inactive
ago | DRSC08463 | 3.12e5 | 2.06e5 | 7.88e5 | 1.33e6 | inactive
SMC1 | DRSC16846 | 1.92e5 | 1.96e5 | 2.27e6 | 1.99e6 | inactive
CG14770 | DRSC17947 | 2.98e5 | 2.86e5 | 4.10e6 | 3.02e6 | inactive
mrva | DRSC11009 | 3.72e5 | 4.88e5 | 2.89e6 | 3.00e6 | inactive
mrva | DRSC21842 | 8.52e5 | 8.24e5 | 2.11e6 | 2.24e6 | inactive
mrva | DRSC25508 | 6.54e5 | 7.18e5 | 9.23e5 | 9.26e5 | inactive
CG7326 | DRSC20037 | 2.87e5 | 96566 | 1.08e6 | 4.31e5 | inactive
CG9555 | DRSC03264 | 1.33e5 | 1.40e5 | 1.21e6 | 1.36e6 | inactive
CG9555 | DRSC25330 | 6.89e5 | 9.30e5 | 8.24e5 | 9.94e5 | inactive
